PubChem BioAssay AID504467 (National Center for Advancing Translational Sciences (NCATS), 2011)
Hit rate of the full screen: of about 330,000 compounds, about 7,700 (2.3%) were called active. The shares of active, inactive and inconclusive entries below differ from those in the screen. Calls come from the whole dose curve; as a rule, active = well fitted inhibition curve with a large enough effect; inconclusive = small, poorly fitted or top-dose-only effect, or effect the other way; inactive = flat fitted curve, though single readings scatter. Potencies beside an inconclusive call are fits to weak or partial responses and may not hold up.

experiment: qHTS screen for small molecules that inhibit ELG1-dependent DNA repair in human embryonic kidney (HEK293T) cells expressing luciferase-tagged ELG1; details: HEK293T ELG1-luciferase reporter, luminescence, 16 h, DNA damage induced by 5-fluorouridine; series mostly up to 46.1 µM; note: nearly all actives have a fitted effect of over 55% in size
Method in brief: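 DMSO vehicle served as the neutral condition. Each well held 2,000 cells given 5-fluorouridine plus compound; after 16 hr at 37 °C/5% CO2, ONE-Glo was added and luciferase measured 30 min later.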
Potency is the fitted concentration of half-maximal effect.

Question: Which Potency does the source give for `CN(C(=O)COC(=O)c1cc(S(=O)(=O)N2CCOCC2)ccc1F)C1CCS(=O)(=O)C1` (stereo unspecified) here?
Answer: inactive

Question: With `CNC(=O)c1ccsc1NC(=O)c1coc2ccccc2c1=O` as the molecule, how does the Potency read?
Answer: inactive

Question: For `CC1=C([N+](=O)[O-])C(c2ccccc2)NC(=O)N1` (stereo unspecified), which Potency is on record?
Answer: inactive

Question: For `COC(=O)C(NC(C)=O)(Nc1cccc(C)n1)C(F)(F)F` (stereo unspecified), which Potency is on record?
Answer: inactive

Question: Which Potency does the source give for `O=C(Cn1cnc2sc(-c3ccccc3)cc2c1=O)NCc1ccccc1` here?
Answer: inactive

Question: For `CS(=O)(=O)c1ccc2nc(NC(=O)Nc3cccc(Cl)c3)sc2c1`, which Potency is on record?
Answer: inconclusive: 1.41 µM [activator, partial curve, poor fit]

Question: With `COc1ccc(CNCCC(c2ccc(F)cc2)c2ccc(OC(C)C)cc2)cc1OC` (stereo unspecified) as the molecule, how does the Potency read?
Answer: inconclusive: 29.1 µM [inhibitor, single point]

Question: With `NNC(=O)COc1ccc(-c2n[nH]c(C(F)(F)F)c2-c2ccc(Br)cc2)c(O)c1` as the molecule, how does the Potency read?
Answer: inconclusive: 32.6 µM [activator, partial curve, poor fit]

Question: Which Potency does the source give for `COc1ccccc1CNC(=O)CCc1c(C)nc2cc(-c3ccccc3OC)nn2c1C` here?
Answer: inconclusive: 29.1 µM [inhibitor, single point]

Question: For `Cc1ccc(SCc2ccc(C(=O)Nc3nccs3)o2)cc1`, which Potency is on record?
Answer: inconclusive: 23.1 µM [activator, single point]

Question: With `O=C(NCc1ccccc1)c1ccc2c(c1)C(=O)N(CC1CCCO1)C2=O` (stereo unspecified) as the molecule, how does the Potency read?
Answer: inactive

Question: With `COc1cccc(C2=NOC(C(=O)Nc3cccc(C(C)=O)c3)C2)c1` (stereo unspecified) as the molecule, how does the Potency read?
Answer: inconclusive: 14.6 µM [inhibitor, partial curve]

Question: With `COc1ccc(NC(=O)CN(C)C(=O)/C=C/c2ccc(S(=O)(=O)N3CCCCCC3)cc2)cc1` as the molecule, how does the Potency read?
Answer: inconclusive: 3.98 µM [inhibitor, partial curve, poor fit]

Question: With `O=C(NCCCN1CCOCC1)c1cc2c(s1)-c1ccccc1OC2` as the molecule, how does the Potency read?
Answer: inconclusive: 20.6 µM [activator, single point]

Question: For `COCCn1nnnc1C(c1cccs1)N1CCN(c2nc3ccccc3s2)CC1` (stereo unspecified), which Potency is on record?
Answer: inconclusive: 18.4 µM [inhibitor, single point]

Question: With `Cc1nn(Cc2noc(C(=O)NC3CCC(C)CC3)n2)c(C)c1Br` (stereo unspecified) as the molecule, how does the Potency read?
Answer: inactive

Question: With `CCCNc1nc2c(c(=O)[nH]c(=O)n2C)n1Cc1cccc(Br)c1` as the molecule, how does the Potency read?
Answer: inconclusive: 16.4 µM [activator, partial curve]

Question: For `Cc1c(Cl)cccc1NC(=S)NCC1COc2ccccc2O1` (stereo unspecified), which Potency is on record?
Answer: inactive

Question: With `CC(C)Cc1cc(C(=O)Nc2sc3c(c2C#N)CCCC3)no1` as the molecule, how does the Potency read?
Answer: inactive

Question: With `O=C(O)c1ccc(N/N=C/c2ccc(-c3ccc(Br)cc3)o2)cc1` as the molecule, how does the Potency read?
Answer: inconclusive: 16.4 µM [activator, partial curve, poor fit]

Question: With `COCC(C)n1c(C)cc(C(=O)COC(=O)c2c(C)nn(-c3ccccc3)c2C)c1C` (stereo unspecified) as the molecule, how does the Potency read?
Answer: inconclusive: 17.8 µM [inhibitor, partial curve, poor fit]

Question: For `Cc1ccc(NC(=O)CCCCCN2C(=O)[C@@H]3Cc4ccccc4CN3C2=O)c(Cl)c1`, which Potency is on record?
Answer: inconclusive: 29.1 µM [inhibitor, single point]

Question: Which Potency does the source give for `CCc1cccc(OCC(=O)Nc2cc(S(=O)(=O)N3CCOCC3)ccc2N2CCCC2)c1` here?
Answer: inconclusive: 20.6 µM [inhibitor, single point]

Question: Which Potency does the source give for `O=c1c(Cl)c(Cl)cnn1Cc1ccccc1Cl` here?
Answer: active: 10.3 µM

Question: Which Potency does the source give for `CN(C)N=Nc1nc2c(c(=O)n(C)c(=O)n2C)n1CC1CO1` (stereo unspecified) here?
Answer: inconclusive: 11.6 µM [inhibitor, partial curve]

Question: With `O=C(CCc1ccc(S(=O)(=O)N2CCOCC2)cc1)N1CCN(Cc2ccc3c(c2)OCO3)CC1` as the molecule, how does the Potency read?
Answer: inconclusive: 20.6 µM [inhibitor, partial curve]

Question: With `CC(C)c1ccc(CCNC(=O)c2cccc(S(=O)(=O)N3CCN(C)CC3)c2)cc1` as the molecule, how does the Potency read?
Answer: inconclusive: 16.4 µM [inhibitor, partial curve]

Question: For `COc1c(C)cc(C(=O)C2CCCN(Cc3cnc(N4CCOCC4)s3)C2)cc1C` (stereo unspecified), which Potency is on record?
Answer: active: 20.6 µM

Question: Which Potency does the source give for `CC1(C)COC(/C=C/c2ccc([N+](=O)[O-])cc2)=N1` here?
Answer: inconclusive: 29.1 µM [inhibitor, single point]

Question: For `Cn1nc(C(=O)OCC(=O)NC2CCS(=O)(=O)C2)c2ccccc2c1=O` (stereo unspecified), which Potency is on record?
Answer: inactive

Question: With `Cc1noc(C)c1C(=O)Nc1ccc(-n2ccc(C(F)(F)F)n2)cc1` as the molecule, how does the Potency read?
Answer: inactive

Question: For `CCOC(=O)Cn1c(CN(Cc2ccccc2)Cc2ccccc2)nc2c1c(=O)n(C)c(=O)n2C`, which Potency is on record?
Answer: inconclusive: 18.4 µM [inhibitor, partial curve, poor fit]

Question: For `COc1ccccc1OCC(O)CN1C(=O)NC(C)(C)C1=O` (stereo unspecified), which Potency is on record?
Answer: inactive

Question: With `O=C(Nc1ccc2c(c1)OCO2)c1ccc(Cl)s1` as the molecule, how does the Potency read?
Answer: inconclusive: 2.06 µM [activator, full curve]

Question: With `Cc1ccc(N(CC(=O)NC(C)(C)C)C(=O)CS(=O)CC(=O)Nc2ccc3c(c2)OCO3)cc1` (stereo unspecified) as the molecule, how does the Potency read?
Answer: inactive

Question: With `Cc1ccc(C(=O)NNC(=O)c2cccs2)cc1` as the molecule, how does the Potency read?
Answer: inconclusive: 20.6 µM [activator, partial curve]

Question: Which Potency does the source give for `CCOC(=O)NCc1ccc2c(c1)cc(C)n2C` here?
Answer: inactive

Question: For `Cc1cc(Br)cc(C)c1NC(=O)c1ccccc1[N+](=O)[O-]`, which Potency is on record?
Answer: inactive

Question: For `CCc1nc(SCc2ccc(Cl)cc2)n[nH]1`, which Potency is on record?
Answer: inconclusive: 20.6 µM [activator, partial curve]

Question: For `COc1ccc(-n2nc3c(c2NC(=O)CBr)CSC3)cc1`, which Potency is on record?
Answer: inconclusive: 16.4 µM [activator, partial curve]

Question: Which Potency does the source give for `C=CCCN(Cc1ccccc1)S(=O)(=O)c1cc(Br)ccc1Br` here?
Answer: inactive

Question: For `COc1ccccc1NC(=O)CCNS(=O)(=O)c1ccc2[nH]c(=O)oc2c1`, which Potency is on record?
Answer: inactive

Question: For `COCCNC(=S)N(c1ccccc1)C(C)C`, which Potency is on record?
Answer: inactive

Question: For `COc1ccc(NC(=O)C(=O)NCCC2CCCCN2S(=O)(=O)c2ccc(F)cc2)cc1` (stereo unspecified), which Potency is on record?
Answer: inconclusive: 3.66 µM [inhibitor, single point]

Question: Which Potency does the source give for `O=C(CCN1C(=O)C2CCCCC2C1=O)Nc1ccc(F)c(F)c1F` (stereo unspecified) here?
Answer: inconclusive: 1.3 µM [inhibitor, full curve, poor fit]

Question: Which Potency does the source give for `COc1cc2c(cc1OC)CN(c1ccc3ccccc3n1)CC2` here?
Answer: inconclusive: 29.1 µM [activator, single point]
